Laboratory results as given in the supplement of paper PMC12889115.
Some of the results follow. These are raw signals, not scaled to a control.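 Primary screen: polymyxin B was added at a level permeabilizing Salmonella outer membranes while sparing inner membranes. DMSO wells, both with and without polymyxin B, established maximum growth. Plate-to-plate variation meant each plate was ranked on its own, and the lowest-OD600 compounds were selected as hits.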

Test system: Salmonella enterica serovar Typhimurium SL1344
Assay: bacterial growth OD600 after 18 h with compound and polymyxin B; higher = more bacterial growth (less inhibition)
Conditions: 50 µM, Mueller-Hinton broth

SMILES	bacterial growth OD600 (polymyxin B 0.75 µg/mL)	bacterial growth OD600 (polymyxin B 1 µg/mL)
O=C(c1ccc2oc(CCc3ccccc3)nc2c1)N1C[C@@H]2CCC[C@H]1C2	0.42	–
CN(Cc1ccccc1)Cc1nc(C2CC2)no1	–	0.926
CC(NC(=O)c1ccc(N2CCC(NC3CCCC3)CC2)cc1)c1ccccc1 (centres undefined)	0.884	–
O=C(c1coc(COc2cccc(F)c2F)n1)N1CCCCO1	–	0.842
CCOC(=O)N1CCC(N(C)CC2CCN(CCc3ccc(F)cc3)CC2)CC1	–	0.92
COc1ccc(NC(=O)CCC2CCCN(C(=O)c3ccoc3C)C2)cc1Cl (centres undefined)	–	1.09
Cc1cccc(CN2CCOC(CCCc3ccccc3)C2)n1 (centres undefined)	0.892	–
CCN1CCN(C(=O)c2ccc(N3CCC(NCc4ccc(F)c(F)c4)CC3)cc2)CC1	0.943	–
COc1cccc([C@@H](C)NC(=O)C2CCN(c3nc(C)c4ccc(S(C)(=O)=O)cc4n3)CC2)c1	0.983	–
C=C(C)CN(CC)C(=O)c1ccc(OC2CCN(C3CCCC3)CC2)c(OC)c1	0.855	–
C=CCN(CC=C)C(=O)C1CCCN(C2CCN(C3Cc4ccccc4C3)CC2)C1 (centres undefined)	–	0.866
O=C(NCC1CCCN(C2CCCCC2)C1)C1(c2ccc(Cl)cc2)CC1 (centres undefined)	–	0.921
CN(CCOc1ccccc1)Cc1nc(-c2ccccc2)no1	–	1.06
O[C@H]1CN(Cc2ccc(-c3ccc(Cl)cc3)o2)C[C@@H]1N1CCOCC1	–	0.003
COc1ccc(OC2CCN(C3CCCC3)CC2)c(C(=O)N2CCCCC2CCCO)c1 (centres undefined)	–	1.18
COc1ccc(CNC(=O)CCC2CCCN(CC3CCCC3)C2)c(OC)c1 (centres undefined)	–	0.939
CCN1CCCC1CNC(=O)CCC1CCN(Cc2cccc(SC)c2)CC1 (centres undefined)	–	0.754
CCOC(=O)C1(CCOc2ccccc2)CCN(S(=O)(=O)c2ccccc2F)CC1	–	0.683
CN(CC1CCCN(CCc2ccccc2F)C1)C(=O)CCc1ccccn1 (centres undefined)	–	1.11
CCCCC1CN(CCC(=O)NC(c2cccnc2)C(F)(F)F)Cc2ccccc2O1 (centres undefined)	0.725	–
Cc1cc(F)ccc1NC(=O)CCC1CCCN(C(=O)C2CCCC2)C1 (centres undefined)	–	0.834
CC#CCN1C(=O)NC(CCCc2ccccc2)(C2CCN(C(=O)c3csnn3)CC2)C1=O (centres undefined)	0.03	–
COc1cccc(CC(C2CCN(C(=O)CCC3CCCCC3)CC2)N(C)C(=O)c2cccnc2)c1 (centres undefined)	0.007	–
Oc1ccc(CN2CCC(O)(Cc3cc(-c4ccccc4)no3)CC2)cc1Cl	–	0.956
Cc1ccccc1CC1(CO)CCCN(Cc2c(C)nn(C)c2Cl)C1 (centres undefined)	–	0.926
COc1ccc2c(c1)SC(c1ccc(F)c(F)c1)CCN2CC1CC1 (centres undefined)	0.002	–
COc1ccc(CN2CCC(CO)(CCCc3ccccc3)CC2)c(OC)c1	–	0.877
CCCn1c(C)c(CC(=O)NC(C)Cn2cccn2)c2c1CC(C)(C)CC2=O (centres undefined)	–	0.636
Cc1cc(C)nc(CNc2ccc(C(=O)NCCC3CCCCN3C)cn2)n1 (centres undefined)	0.795	–

3 compounds already listed, arranged by SMILES length, high to low.
SMILES	bacterial growth OD600 (polymyxin B 0.75 µg/mL)	bacterial growth OD600 (polymyxin B 1 µg/mL)
O=C(NCC1CCCN(C2CCCCC2)C1)C1(c2ccc(Cl)cc2)CC1 (centres undefined)	–	0.921
CCN1CCCC1CNC(=O)CCC1CCN(Cc2cccc(SC)c2)CC1 (centres undefined)	–	0.754
CN(CCOc1ccccc1)Cc1nc(-c2ccccc2)no1	–	1.06
